Laboratory results published in the supplement of paper PMC7666118.
The list shows a part of the results.

By UniProt entry, the sequences of proteins in these tests, tags left out. Where a name states a change or a piece, a line headed by the entry shows the natural chain unless it says otherwise.
UniProt Q9UBK9, whole entry: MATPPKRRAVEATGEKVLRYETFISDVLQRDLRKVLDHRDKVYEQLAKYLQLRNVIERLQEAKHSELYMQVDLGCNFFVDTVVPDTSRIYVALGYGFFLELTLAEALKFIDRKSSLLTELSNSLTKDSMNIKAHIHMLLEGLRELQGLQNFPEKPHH
UniProt P10746: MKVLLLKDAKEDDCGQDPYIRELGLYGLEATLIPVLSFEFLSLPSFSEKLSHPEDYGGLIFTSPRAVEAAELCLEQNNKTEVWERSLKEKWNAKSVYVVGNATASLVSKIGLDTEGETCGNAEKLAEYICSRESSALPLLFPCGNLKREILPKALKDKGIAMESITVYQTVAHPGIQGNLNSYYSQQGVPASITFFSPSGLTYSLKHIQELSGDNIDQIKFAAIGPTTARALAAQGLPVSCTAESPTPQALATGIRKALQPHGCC
UniProt P51965: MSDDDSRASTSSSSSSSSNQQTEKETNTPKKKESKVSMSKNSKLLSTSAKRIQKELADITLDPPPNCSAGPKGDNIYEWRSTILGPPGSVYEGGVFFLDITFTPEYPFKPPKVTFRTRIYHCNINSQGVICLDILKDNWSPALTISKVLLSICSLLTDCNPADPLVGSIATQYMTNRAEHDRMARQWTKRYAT
UniProt P19971: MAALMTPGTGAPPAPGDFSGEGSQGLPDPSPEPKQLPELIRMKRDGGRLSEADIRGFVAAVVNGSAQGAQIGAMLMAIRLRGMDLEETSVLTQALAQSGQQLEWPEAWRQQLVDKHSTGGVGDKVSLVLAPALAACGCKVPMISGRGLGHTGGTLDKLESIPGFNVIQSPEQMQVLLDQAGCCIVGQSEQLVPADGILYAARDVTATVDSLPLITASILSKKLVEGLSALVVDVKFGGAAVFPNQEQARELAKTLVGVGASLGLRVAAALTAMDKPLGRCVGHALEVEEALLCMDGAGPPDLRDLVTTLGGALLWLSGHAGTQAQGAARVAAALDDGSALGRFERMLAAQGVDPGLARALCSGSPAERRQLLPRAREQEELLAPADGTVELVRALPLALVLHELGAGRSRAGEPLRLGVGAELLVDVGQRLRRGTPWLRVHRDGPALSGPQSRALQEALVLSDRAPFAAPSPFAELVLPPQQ
UniProt P08670, whole entry: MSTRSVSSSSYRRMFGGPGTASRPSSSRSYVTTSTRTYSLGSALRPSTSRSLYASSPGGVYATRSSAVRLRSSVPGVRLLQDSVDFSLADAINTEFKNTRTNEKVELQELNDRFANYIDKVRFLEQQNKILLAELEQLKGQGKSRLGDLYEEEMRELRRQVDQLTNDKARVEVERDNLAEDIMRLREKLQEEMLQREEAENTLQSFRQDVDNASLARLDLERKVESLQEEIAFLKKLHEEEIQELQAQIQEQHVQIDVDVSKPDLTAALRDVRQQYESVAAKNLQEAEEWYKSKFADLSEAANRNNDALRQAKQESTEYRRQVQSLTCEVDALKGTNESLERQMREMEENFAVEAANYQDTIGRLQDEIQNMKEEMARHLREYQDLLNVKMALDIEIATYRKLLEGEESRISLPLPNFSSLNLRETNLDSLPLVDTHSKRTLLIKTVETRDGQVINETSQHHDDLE
UniProt Q7Z7E8: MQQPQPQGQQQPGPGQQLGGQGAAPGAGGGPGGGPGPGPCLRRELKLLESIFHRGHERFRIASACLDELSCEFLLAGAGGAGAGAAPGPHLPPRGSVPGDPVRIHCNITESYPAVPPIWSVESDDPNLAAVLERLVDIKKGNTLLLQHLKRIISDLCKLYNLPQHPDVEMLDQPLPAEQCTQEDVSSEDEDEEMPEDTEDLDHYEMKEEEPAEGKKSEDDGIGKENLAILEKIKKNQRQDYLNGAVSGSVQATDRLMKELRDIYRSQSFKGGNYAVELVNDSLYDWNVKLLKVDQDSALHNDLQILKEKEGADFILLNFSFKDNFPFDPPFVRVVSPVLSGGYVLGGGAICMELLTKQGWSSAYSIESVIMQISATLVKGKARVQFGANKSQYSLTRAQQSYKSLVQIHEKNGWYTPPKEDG
UniProt O94901, whole entry: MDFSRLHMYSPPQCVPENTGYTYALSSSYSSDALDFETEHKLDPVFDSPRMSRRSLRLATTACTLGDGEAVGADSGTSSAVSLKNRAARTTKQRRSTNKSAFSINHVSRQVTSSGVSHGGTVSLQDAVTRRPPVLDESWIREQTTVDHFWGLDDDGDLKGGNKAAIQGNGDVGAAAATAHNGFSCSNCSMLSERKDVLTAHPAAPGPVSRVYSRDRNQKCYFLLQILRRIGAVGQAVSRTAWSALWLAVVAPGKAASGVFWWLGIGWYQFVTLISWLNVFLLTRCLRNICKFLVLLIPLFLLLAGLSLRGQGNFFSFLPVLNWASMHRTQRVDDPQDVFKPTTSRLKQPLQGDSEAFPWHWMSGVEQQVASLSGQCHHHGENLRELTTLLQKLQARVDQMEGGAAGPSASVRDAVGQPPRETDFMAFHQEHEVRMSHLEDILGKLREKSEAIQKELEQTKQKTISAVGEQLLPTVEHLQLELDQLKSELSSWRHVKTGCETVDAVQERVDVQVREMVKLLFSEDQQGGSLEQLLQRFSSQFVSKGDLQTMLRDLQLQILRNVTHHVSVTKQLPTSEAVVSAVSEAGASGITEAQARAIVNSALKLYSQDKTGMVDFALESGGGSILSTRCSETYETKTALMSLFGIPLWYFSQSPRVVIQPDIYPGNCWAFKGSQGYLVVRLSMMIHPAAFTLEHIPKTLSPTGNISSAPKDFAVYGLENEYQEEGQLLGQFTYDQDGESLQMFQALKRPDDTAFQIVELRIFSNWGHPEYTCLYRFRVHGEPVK
UniProt Q96T88: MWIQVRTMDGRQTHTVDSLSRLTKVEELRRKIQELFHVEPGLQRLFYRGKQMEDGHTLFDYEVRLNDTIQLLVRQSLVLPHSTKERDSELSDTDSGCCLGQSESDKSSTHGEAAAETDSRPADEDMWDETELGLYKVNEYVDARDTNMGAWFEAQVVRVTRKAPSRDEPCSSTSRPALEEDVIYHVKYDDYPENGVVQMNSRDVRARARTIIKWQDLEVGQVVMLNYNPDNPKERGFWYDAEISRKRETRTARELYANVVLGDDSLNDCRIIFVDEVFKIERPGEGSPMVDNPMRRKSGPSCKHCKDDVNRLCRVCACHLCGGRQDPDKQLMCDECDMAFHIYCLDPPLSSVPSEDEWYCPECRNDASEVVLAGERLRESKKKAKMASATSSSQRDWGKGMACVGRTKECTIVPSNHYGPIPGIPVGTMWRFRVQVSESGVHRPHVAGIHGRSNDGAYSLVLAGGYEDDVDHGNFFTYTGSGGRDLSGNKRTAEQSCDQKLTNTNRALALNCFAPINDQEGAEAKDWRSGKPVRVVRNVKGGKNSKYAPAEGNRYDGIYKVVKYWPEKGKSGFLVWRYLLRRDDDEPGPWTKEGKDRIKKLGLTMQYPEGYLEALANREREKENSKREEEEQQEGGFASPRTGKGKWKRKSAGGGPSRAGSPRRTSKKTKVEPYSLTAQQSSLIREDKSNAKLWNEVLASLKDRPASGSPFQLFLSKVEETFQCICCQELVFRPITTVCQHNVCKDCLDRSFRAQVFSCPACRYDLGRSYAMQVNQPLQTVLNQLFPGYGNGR
UniProt Q6BDS2: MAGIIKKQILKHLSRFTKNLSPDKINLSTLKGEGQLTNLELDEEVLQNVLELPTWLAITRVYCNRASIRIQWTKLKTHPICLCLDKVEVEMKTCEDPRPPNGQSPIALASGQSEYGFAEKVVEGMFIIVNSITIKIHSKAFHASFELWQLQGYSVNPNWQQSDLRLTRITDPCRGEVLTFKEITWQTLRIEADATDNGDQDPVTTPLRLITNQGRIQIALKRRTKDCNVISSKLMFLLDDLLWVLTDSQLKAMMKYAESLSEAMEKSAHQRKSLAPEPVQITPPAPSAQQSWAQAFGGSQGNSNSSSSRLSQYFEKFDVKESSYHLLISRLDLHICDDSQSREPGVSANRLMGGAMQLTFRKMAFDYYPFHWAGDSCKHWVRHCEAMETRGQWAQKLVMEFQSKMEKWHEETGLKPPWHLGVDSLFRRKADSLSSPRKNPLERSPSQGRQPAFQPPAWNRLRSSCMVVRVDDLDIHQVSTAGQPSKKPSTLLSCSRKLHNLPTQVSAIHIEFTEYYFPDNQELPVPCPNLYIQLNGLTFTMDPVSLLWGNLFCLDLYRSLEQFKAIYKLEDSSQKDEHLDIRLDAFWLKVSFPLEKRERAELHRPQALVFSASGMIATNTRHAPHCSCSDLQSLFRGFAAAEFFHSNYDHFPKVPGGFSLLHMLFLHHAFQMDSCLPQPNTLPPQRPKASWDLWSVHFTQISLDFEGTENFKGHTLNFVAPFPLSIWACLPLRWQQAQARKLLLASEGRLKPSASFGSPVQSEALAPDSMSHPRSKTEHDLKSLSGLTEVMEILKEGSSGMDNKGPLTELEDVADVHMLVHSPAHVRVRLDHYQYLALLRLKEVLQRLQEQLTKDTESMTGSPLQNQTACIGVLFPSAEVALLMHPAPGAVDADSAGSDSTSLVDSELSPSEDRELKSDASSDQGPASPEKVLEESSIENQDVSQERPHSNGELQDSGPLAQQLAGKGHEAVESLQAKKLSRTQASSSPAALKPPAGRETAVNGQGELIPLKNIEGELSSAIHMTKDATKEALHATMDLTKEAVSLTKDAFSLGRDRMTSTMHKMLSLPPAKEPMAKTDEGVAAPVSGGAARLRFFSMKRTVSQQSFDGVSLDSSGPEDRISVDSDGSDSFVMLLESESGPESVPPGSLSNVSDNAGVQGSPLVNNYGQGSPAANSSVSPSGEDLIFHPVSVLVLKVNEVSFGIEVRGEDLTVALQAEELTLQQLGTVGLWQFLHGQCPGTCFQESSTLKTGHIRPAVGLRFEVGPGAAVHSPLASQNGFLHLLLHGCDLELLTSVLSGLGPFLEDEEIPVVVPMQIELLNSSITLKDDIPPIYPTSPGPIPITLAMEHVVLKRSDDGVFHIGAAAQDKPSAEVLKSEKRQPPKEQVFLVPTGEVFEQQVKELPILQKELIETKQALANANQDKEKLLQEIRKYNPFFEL
UniProt Q9GZX9: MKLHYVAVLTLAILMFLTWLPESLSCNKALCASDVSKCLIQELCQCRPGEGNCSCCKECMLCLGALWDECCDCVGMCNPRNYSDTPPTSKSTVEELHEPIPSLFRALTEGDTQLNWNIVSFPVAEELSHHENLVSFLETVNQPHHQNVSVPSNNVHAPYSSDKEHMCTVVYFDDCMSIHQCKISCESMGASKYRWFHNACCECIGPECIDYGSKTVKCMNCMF
UniProt Q9H1C4: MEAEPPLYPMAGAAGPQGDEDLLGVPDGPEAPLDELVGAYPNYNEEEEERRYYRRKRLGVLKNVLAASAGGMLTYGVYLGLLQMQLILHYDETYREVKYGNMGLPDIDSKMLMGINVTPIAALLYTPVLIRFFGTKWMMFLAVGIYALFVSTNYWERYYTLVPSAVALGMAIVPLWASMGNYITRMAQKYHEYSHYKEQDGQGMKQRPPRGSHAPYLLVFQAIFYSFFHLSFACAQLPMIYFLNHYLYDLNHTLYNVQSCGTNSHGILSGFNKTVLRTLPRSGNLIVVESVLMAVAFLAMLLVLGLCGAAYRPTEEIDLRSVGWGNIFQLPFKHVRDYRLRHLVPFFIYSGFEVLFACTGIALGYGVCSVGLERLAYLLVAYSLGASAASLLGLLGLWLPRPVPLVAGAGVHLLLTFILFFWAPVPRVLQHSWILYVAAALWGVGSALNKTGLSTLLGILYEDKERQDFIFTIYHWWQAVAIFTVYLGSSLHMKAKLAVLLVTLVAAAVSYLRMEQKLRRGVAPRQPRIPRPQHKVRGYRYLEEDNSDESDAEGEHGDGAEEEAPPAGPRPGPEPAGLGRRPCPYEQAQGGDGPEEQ
UniProt Q6PID6, whole entry: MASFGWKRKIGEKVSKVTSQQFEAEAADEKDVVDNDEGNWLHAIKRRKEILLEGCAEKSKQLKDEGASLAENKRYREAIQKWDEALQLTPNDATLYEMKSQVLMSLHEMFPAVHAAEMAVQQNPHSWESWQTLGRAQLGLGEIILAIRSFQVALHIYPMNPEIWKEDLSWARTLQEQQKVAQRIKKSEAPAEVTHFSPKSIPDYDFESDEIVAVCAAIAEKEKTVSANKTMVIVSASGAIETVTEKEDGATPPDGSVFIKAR
UniProt Q9BTM9: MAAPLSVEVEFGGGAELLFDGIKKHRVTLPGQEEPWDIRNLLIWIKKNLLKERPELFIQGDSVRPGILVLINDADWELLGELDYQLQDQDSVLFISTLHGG
UniProt Q9BS26: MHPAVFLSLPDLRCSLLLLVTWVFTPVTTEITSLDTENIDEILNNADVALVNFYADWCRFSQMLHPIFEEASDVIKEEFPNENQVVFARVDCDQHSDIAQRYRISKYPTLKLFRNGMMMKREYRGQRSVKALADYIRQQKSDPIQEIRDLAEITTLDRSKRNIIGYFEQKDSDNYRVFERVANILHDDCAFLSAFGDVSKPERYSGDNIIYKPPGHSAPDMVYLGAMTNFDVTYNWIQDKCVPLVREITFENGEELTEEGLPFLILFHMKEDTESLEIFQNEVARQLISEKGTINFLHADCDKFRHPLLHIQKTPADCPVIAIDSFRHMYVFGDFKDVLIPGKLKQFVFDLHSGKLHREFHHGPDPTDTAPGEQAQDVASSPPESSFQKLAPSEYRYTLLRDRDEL

Each target was assayed with COc1ccc(Cn2ccc3cc(C)c(C(=O)NO)cc32)cc1 (assay: dose-dependent thermal stabilisation call (2D-TPP, DLPTP, 10% FDR) (binary (1 = stabilised)); higher = stabilised by the compound). Conditions: system: HL-60 intact cells; concentration range 0.04-10 µM.
Method: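 2D thermal proteome profiling in intact HL-60 cells treated with BRD-3811 (0, 0.04, 0.29, 2, 10 uM) for 90 min at 37 C, then heated 3 min at one of 12 temperatures (42-63.9 C). Soluble protein was quantified by TMT10 MS. The value is the DLPTP call of the paper: dose-dependent thermal stabilisation over all temperatures at 10% FDR (F-test of a dose-response against a flat model); one experiment, one call per tested protein.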
UXT (UniProt Q9UBK9) was tested, and the “dose-dependent thermal stabilisation call” value was inactive: 0.
With USP4 (UniProt Q13107) the “dose-dependent thermal stabilisation call” value was inactive: 0.
URB2 (UniProt Q14146) was tested, and the “dose-dependent thermal stabilisation call” value was inactive: 0.
In the case of UPF2 (UniProt Q9HAU5), the “dose-dependent thermal stabilisation call” value is reported as inactive: 0.
With TXNDC17 (UniProt Q9BRA2) the “dose-dependent thermal stabilisation call” value was inactive: 0.
For UROS (UniProt P10746), the “dose-dependent thermal stabilisation call” value was inactive: 0.
With UTP6 (UniProt Q9NYH9) the “dose-dependent thermal stabilisation call” value was inactive: 0.
For UBE2E1 (UniProt P51965), the “dose-dependent thermal stabilisation call” value was inactive: 0.
With URB1 (UniProt O60287) the “dose-dependent thermal stabilisation call” value was inactive: 0.
For VASP (UniProt P50552), the “dose-dependent thermal stabilisation call” value was inactive: 0.
UBL7 (UniProt Q96S82) was tested, and the “dose-dependent thermal stabilisation call” value was inactive: 0.
In the case of VAMP4 (UniProt O75379), the “dose-dependent thermal stabilisation call” value is reported as inactive: 0.
In the case of USP36 (UniProt Q9P275), the “dose-dependent thermal stabilisation call” value is reported as inactive: 0.
For TYMP (UniProt P19971), the “dose-dependent thermal stabilisation call” value was inactive: 0.
With TUBA1A (UniProt Q71U36) the “dose-dependent thermal stabilisation call” value was inactive: 0.
TXNRD1 (UniProt Q16881) was tested, and the “dose-dependent thermal stabilisation call” value was inactive: 0.
With VPS45 (UniProt Q9NRW7) the “dose-dependent thermal stabilisation call” value was inactive: 0.
For UBE3C (UniProt Q15386), the “dose-dependent thermal stabilisation call” value was inactive: 0.
In the case of VAC14 (UniProt Q08AM6), the “dose-dependent thermal stabilisation call” value is reported as inactive: 0.
In the case of VIM (UniProt P08670), the “dose-dependent thermal stabilisation call” value is reported as inactive: 0.
With UBE2Q1 (UniProt Q7Z7E8) the “dose-dependent thermal stabilisation call” value was inactive: 0.
In the case of UNC84A (UniProt O94901), the “dose-dependent thermal stabilisation call” value is reported as inactive: 0.
With USF1 (UniProt P22415) the “dose-dependent thermal stabilisation call” value was inactive: 0.
UHRF1 (UniProt Q96T88) was tested, and the “dose-dependent thermal stabilisation call” value was inactive: 0.
ULK3 (UniProt Q6PHR2) was tested, and the “dose-dependent thermal stabilisation call” value was inactive: 0.
In the case of UHRF1BP1 (UniProt Q6BDS2), the “dose-dependent thermal stabilisation call” value is reported as inactive: 0.
In the case of TWSG1 (UniProt Q9GZX9), the “dose-dependent thermal stabilisation call” value is reported as inactive: 0.
UNC93B1 (UniProt Q9H1C4) was tested, and the “dose-dependent thermal stabilisation call” value was inactive: 0.
VPS13B (UniProt Q7Z7G8) was tested, and the “dose-dependent thermal stabilisation call” value was inactive: 0.
For VPS39 (UniProt Q96JC1), the “dose-dependent thermal stabilisation call” value was inactive: 0.
For WAS (UniProt P42768), the “dose-dependent thermal stabilisation call” value was inactive: 0.
With TTC33 (UniProt Q6PID6) the “dose-dependent thermal stabilisation call” value was inactive: 0.
With UBA3 (UniProt Q8TBC4) the “dose-dependent thermal stabilisation call” value was inactive: 0.
For UTP18 (UniProt Q9Y5J1), the “dose-dependent thermal stabilisation call” value was inactive: 0.
In the case of URM1 (UniProt Q9BTM9), the “dose-dependent thermal stabilisation call” value is reported as inactive: 0.
UBAP2 (UniProt Q5T6F2) was tested, and the “dose-dependent thermal stabilisation call” value was inactive: 0.
With VPS13C (UniProt Q709C8) the “dose-dependent thermal stabilisation call” value was inactive: 0.
In the case of UIMC1 (UniProt Q96RL1), the “dose-dependent thermal stabilisation call” value is reported as inactive: 0.
TXNDC4 (UniProt Q9BS26) was tested, and the “dose-dependent thermal stabilisation call” value was inactive: 0.
In the case of UGP2 (UniProt Q16851), the “dose-dependent thermal stabilisation call” value is reported as inactive: 0.
